Data as given in publication PMC7229820.
Results are given in words; binding and its absence hold for the method and conditions named. Binding seen in cells or lysates may run through a third protein. Some entries that bind do so weakly or less than the wild type.

Sequences of proteins named here, by UniProt entry; tags and fusion partners are left off.
UniProt Q3URK3: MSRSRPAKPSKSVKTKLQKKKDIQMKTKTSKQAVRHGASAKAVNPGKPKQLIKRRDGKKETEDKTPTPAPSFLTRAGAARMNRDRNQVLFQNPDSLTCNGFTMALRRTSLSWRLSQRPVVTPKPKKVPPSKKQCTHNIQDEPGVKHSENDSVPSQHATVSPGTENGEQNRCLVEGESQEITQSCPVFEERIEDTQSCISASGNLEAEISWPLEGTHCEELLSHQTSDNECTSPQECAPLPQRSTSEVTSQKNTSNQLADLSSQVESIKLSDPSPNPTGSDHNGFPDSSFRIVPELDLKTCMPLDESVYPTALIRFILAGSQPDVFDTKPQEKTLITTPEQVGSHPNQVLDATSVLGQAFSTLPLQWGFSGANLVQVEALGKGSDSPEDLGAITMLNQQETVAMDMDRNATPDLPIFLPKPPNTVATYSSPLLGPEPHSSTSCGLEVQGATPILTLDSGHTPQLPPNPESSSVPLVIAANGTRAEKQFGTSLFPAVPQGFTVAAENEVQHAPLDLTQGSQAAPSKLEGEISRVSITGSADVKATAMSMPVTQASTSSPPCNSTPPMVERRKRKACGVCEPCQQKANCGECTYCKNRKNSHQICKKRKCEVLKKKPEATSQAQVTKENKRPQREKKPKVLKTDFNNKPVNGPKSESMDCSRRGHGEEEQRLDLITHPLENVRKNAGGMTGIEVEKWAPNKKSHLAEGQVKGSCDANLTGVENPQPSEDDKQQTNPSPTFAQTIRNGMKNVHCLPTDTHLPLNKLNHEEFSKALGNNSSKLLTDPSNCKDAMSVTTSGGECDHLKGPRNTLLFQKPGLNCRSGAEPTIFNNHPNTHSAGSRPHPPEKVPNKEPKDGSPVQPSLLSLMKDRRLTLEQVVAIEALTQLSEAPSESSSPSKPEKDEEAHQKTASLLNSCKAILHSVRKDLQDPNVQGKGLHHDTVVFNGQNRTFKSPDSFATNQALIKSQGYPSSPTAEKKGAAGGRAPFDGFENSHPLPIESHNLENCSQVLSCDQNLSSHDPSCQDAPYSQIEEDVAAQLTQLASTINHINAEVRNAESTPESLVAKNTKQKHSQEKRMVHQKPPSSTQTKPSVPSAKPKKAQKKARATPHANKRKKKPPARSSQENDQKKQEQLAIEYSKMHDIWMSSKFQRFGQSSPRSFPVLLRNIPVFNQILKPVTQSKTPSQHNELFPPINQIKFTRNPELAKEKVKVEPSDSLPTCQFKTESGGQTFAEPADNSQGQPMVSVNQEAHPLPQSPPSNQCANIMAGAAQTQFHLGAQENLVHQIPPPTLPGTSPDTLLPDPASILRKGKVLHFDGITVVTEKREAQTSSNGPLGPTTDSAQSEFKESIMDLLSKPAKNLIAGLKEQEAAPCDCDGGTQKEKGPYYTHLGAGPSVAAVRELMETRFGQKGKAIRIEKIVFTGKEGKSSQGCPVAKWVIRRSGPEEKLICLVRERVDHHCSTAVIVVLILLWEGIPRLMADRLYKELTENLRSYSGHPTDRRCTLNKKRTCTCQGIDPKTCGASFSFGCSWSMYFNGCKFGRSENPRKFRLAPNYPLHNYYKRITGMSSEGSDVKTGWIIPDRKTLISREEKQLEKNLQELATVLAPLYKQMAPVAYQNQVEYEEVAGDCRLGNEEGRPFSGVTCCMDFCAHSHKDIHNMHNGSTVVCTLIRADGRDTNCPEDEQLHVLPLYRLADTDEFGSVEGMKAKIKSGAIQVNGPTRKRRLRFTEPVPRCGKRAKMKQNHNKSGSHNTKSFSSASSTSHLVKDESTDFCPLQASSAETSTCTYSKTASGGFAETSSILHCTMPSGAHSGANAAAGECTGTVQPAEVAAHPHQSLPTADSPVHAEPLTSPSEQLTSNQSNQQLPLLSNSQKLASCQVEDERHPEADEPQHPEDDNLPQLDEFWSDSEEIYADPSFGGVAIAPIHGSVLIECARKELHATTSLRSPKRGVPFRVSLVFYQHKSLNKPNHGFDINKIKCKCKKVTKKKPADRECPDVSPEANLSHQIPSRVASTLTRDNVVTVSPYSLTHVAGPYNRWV

T1: NONO (mouse (endogenous in mESCs)) (UniProt Q99K48)
T1 sequence: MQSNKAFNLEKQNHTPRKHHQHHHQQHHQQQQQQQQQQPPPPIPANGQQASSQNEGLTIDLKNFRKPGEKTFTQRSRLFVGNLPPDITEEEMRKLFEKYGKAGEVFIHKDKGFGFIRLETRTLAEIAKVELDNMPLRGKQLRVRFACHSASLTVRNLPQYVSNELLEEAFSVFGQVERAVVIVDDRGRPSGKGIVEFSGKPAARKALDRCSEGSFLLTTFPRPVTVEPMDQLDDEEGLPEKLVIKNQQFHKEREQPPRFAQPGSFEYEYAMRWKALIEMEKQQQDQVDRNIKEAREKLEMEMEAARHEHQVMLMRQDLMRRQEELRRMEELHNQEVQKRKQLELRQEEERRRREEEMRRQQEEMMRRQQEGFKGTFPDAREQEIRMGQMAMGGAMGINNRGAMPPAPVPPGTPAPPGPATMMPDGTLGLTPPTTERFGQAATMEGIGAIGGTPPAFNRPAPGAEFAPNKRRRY


How the values were obtained:
[1] = target: T1, NONO (mouse (endogenous in mESCs)); assay: co-IP; lightly sonicated mESC nuclear extracts incubated with 2 ug NONO antibody, TET1 antibody or control IgG and protein A/G agarose beads at 4 C overnight; washed five times in 50 mM Tris-HCl pH 7.9, 150 mM KCl, 5 mM MgCl2, 0.2 mM EDTA, 5% glycerol, 0.1% NP-40; Western blot
[2] = target: Ten-Eleven Translocation 1 (TET1) (mouse (endogenous in mESCs)) (UniProt Q3URK3); assay: as above

Row | Molecule | binding [1] | binding [2]
1 | Ten-Eleven Translocation 1 (TET1) (from UniProt Q3URK3 1-2039) | binds | 
2 | NONO (protein, UniProt Q99K48 1-473) MQSNKAFNLEKQNHTPRKHHQHHHQQHHQQQQQQQQQQPPPPIPANGQQASSQNEGLTIDLKNFRKPGEKTFTQRSRLFVGNLPPDITEEEMRKLFEKYGKAGEVFIHKDKGFGFIRLETRTLAEIAKVELDNMPLRGKQLRVRFACHSASLTVRNLPQYVSNELLEEAFSVFGQVERAVVIVDDRGRPSGKGIVEFSGKPAARKALDRCSEGSFLLTTFPRPVTVEPMDQLDDEEGLPEKLVIKNQQFHKEREQPPRFAQPGSFEYEYAMRWKALIEMEKQQQDQVDRNIKEAREKLEMEMEAARHEHQVMLMRQDLMRRQEELRRMEELHNQEVQKRKQLELRQEEERRRREEEMRRQQEEMMRRQQEGFKGTFPDAREQEIRMGQMAMGGAMGINNRGAMPPAPVPPGTPAPPGPATMMPDGTLGLTPPTTERFGQAATMEGIGAIGGTPPAFNRPAPGAEFAPNKRRRY |  | binds
